Experimental data from patent US7857804B2, “Use of Bcl inhibitors for the prevention of fibroproliferative reclosure of dilated blood vessels and other iatrogenic fibroproliferative disorders” (priority 2006, dated 2010).
At least one structure is not confirmed: it was looked up by name or label, or the drawing left a doubt.

Key:
[1] = system: R1GFP (human atherosclerosis-derived cell line with known resistance to fas ligation); assay: MTT cell survival after fas ligation (CH11), GFP-only expressing cell line; format: cell-based; conditions: BCLI 20 μM; interferon-gamma 50 U/ml; SP600125 20 μM; CH11 50 ng/ml
Experimental: Cells for study were derived from human carotid artery atherosclerotic lesions, by published methods. Additionally, cell lines were subcloned and tested for sensitivity to fas ligation. In the present studies, clonal lines with known resistance to fas ligation were used.
(§1) Induction of apoptosis was achieved by reduction of serum concentration from 10% to 1% FBS for 24 hours prior to adding an activating antibody to fas (CH11, Upstate Biotechnology) at a typical concentration of 50-500 ng/ml. Typically 24-48 hours after fas ligation by CH11, cell survival was determined by measuring metabolic activity by the MTT method.
In addition to the BCL-inhibitor, this sensitizing effect was also observed with AA. As above, a human atherosclerosis-derived cell line with known resistance to fas ligation was used for study. In this case, the cell line was stably infected with a retrovirus expressing either an irrelevant marker gene (green fluorescent protein, GFP) or the marker gene and Bcl-Xl. […]
Referring to FIG. 2, human atherosclerosis-derived cells were pretreated with the specified drugs for 24 prior to treatment with the activating fas antibody CH11 (50 ng/ml). […] The upper panel reports the MTT optical density (absorbance at 570 nm) without (control) or with fas ligation (+fas) as the mean, with error bars indicating±standard error of measurement (s.e.m., n=3 per group). […]

[2] = system: R1 cells over-expressing Bcl-Xl (R1 bclXL); assay: MTT cell survival after fas ligation (CH11), R1 cells over-expressing Bcl-Xl; format: cell-based, human; conditions: AA 20 μg/ml; BCLI 20 μM; IFN 50 U/ml; SP 20 μM; CH11 50 ng/ml
Experimental: as §1
In one example, to determine whether the effect of BCLI and AA was via interaction with their intended targets (Bcl-Xl and Bcl-2), the drugs were tested in R1 cells over-expressing Bcl-Xl (R1 bclXL).
Referring to FIG. 2, human atherosclerosis-derived cells were pretreated with the specified drugs for 24 prior to treatment with the activating fas antibody CH11 (50 ng/ml). […] The drugs used were AA (20 μg/ml), BCLI (20 μM), interferon-gamma (IFN, 50 U/ml), and SP600125 (SP, 20 μM). The upper panel reports the MTT optical density (absorbance at 570 nm) without (control) or with fas ligation (+fas) as the mean, with error bars indicating±standard error of measurement (s.e.m., n=3 per group). The lower panel expresses % survival based on the MTT values above (MTT+fas/MTT Control)×100.

Oc1c2ccccc2c2c3c(cccc13)N=N2 [SP600125]
sensitizing effect to fas ligation (in words) [1]: more general inhibitory effect
effectiveness in Bcl-Xl over-expressing cells compared with GFP control cells [2]: still an effective inhibitor, though less potent
